Values from PubChem BioAssay AID1259254 (NCATS, 2017)
This is a random part of about 59,000 deposited reagents. Over the whole deposit, about 1,550 (2.6%) got an active call. 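G2 share is only a proxy for re-replication; each gene was hit by three separate siRNAs, and active genes were retested.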 Raw values are not corrected between plates. A number with no mark means an inactive call. Not stated in the record: the amount of reagent.

- Assay: 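Finding genes that stop cells copying their DNA twice in one cycle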 (primary screen)
- Cells: human HCT116 colorectal cancer cells
- Reagent: single siRNA against human genes
- Time to read-out: 3 days
- Read-out: 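Nuclei stained with Hoechst and imaged; cell-cycle phase assigned by DNA content; G2 share scaled per plate, non-targeting siRNA 0%, GMNN siRNA 100%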
- Direction: G2 robust z-score and G2 cells, % of GMNN control: higher = more G2 cells, more excess DNA replication; raw share of cells in G2: higher = larger share of cells with G2 DNA content
- Active means: 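An siRNA counts as active if its G2 robust z-score lies at least 5 MADs above the screen median; here such calls match roughly 38% of GMNN control or more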

| gene symbol | PubChem SID | G2 robust z-score | G2 cells, % of GMNN control | raw share of cells in G2 (%) |
| --- | --- | --- | --- | --- |
| ZW10 (GeneID 9183) | SID160721668 | 0.896 | 9.27 | 8.75 |
| ZW10 (GeneID 9183) | SID160721669 | -1.03 | -4.31 | 3.75 |
| ZW10 (GeneID 9183) | SID160721670 | 1.03 | 10.2 | 8.36 |
| ANKS4B (GeneID 257629) | SID160762569 | 3.01 | 24.1 | 12.4 |
| ANKS4B (GeneID 257629) | SID160762572 | -0.229 | 1.36 | 3.57 |
| ANKS4B (GeneID 257629) | SID160762573 | -0.17 | 1.77 | 3.81 |
| ADRB2 (GeneID 154) | SID160715053 | -1.34 | -6.46 | 3.53 |
| ADRB2 (GeneID 154) | SID160715064 | 1.15 | 11.1 | 8.38 |
| ADRB2 (GeneID 154) | SID160715075 | 0.444 | 6.09 | 5.14 |
| H1-3 (GeneID 3007) | SID160774791 | -0.11 | 2.19 | 6.33 |
| H1-3 (GeneID 3007) | SID160774792 | 0.575 | 7.01 | 6.66 |
| H1-3 (GeneID 3007) | SID160774795 | 0.076 | 3.5 | 4.89 |
| TRAF3IP3 (GeneID 80342) | SID160750427 | -1.37 | -6.7 | 3.5 |
| TRAF3IP3 (GeneID 80342) | SID160750428 | 2.31 | 19.2 | 12.2 |
| TRAF3IP3 (GeneID 80342) | SID160750430 | 0.292 | 5.02 | 5.29 |
| SF3B6 (GeneID 51639) | SID160731386 | 0.0439 | 3.28 | 5.06 |
| SF3B6 (GeneID 51639) | SID160741130 | 0.0253 | 3.15 | 5.41 |
| SF3B6 (GeneID 51639) | SID160741131 | 0.969 | 9.79 | 10.4 |
| WFDC5 (GeneID 149708) | SID160758871 | -0.679 | -1.81 | 3.94 |
| WFDC5 (GeneID 149708) | SID160758872 | -1.24 | -5.77 | 2.59 |
| WFDC5 (GeneID 149708) | SID160758873 | -0.165 | 1.81 | 6.82 |
| PDE3B (GeneID 5140) | SID160713983 | -0.576 | -1.08 | 3.17 |
| PDE3B (GeneID 5140) | SID160713984 | -0.752 | -2.32 | 3.6 |
| PDE3B (GeneID 5140) | SID160713985 | -0.95 | -3.72 | 3.59 |
| FAM90A27P (GeneID 646508) | SID160769909 | 0.322 | 5.23 | 5.75 |
| FAM90A27P (GeneID 646508) | SID160769910 | -0.586 | -1.16 | 2.79 |
| FAM90A27P (GeneID 646508) | SID160769912 | -0.431 | -0.0635 | 3.02 |
| HLA-DRB7 (GeneID 3129) | SID160774212 | -0.485 | -0.448 | 3.5 |
| HLA-DRB7 (GeneID 3129) | SID160774213 | 2.79 | 22.6 | 12.8 |
| HLA-DRB7 (GeneID 3129) | SID160774214 | 4.78 | 36.6 | 17.2 |
| CHIA (GeneID 27159) | SID160738485 | 2.4 | 19.9 | 10.8 |
| CHIA (GeneID 27159) | SID160738486 | 1.67 | 14.7 | 12.8 |
| CHIA (GeneID 27159) | SID160738487 | -0.548 | -0.891 | 3.7 |

Ordered by “raw share of cells in G2 (%)” (lowest first): 10 of the entries above.
| gene symbol | PubChem SID | G2 robust z-score | G2 cells, % of GMNN control | raw share of cells in G2 (%) |
| --- | --- | --- | --- | --- |
| WFDC5 (GeneID 149708) | SID160758872 | -1.24 | -5.77 | 2.59 |
| PDE3B (GeneID 5140) | SID160713983 | -0.576 | -1.08 | 3.17 |
| TRAF3IP3 (GeneID 80342) | SID160750427 | -1.37 | -6.7 | 3.5 |
| WFDC5 (GeneID 149708) | SID160758871 | -0.679 | -1.81 | 3.94 |
| SF3B6 (GeneID 51639) | SID160731386 | 0.0439 | 3.28 | 5.06 |
| TRAF3IP3 (GeneID 80342) | SID160750430 | 0.292 | 5.02 | 5.29 |
| SF3B6 (GeneID 51639) | SID160741130 | 0.0253 | 3.15 | 5.41 |
| WFDC5 (GeneID 149708) | SID160758873 | -0.165 | 1.81 | 6.82 |
| SF3B6 (GeneID 51639) | SID160741131 | 0.969 | 9.79 | 10.4 |
| TRAF3IP3 (GeneID 80342) | SID160750428 | 2.31 | 19.2 | 12.2 |

Further records follow.
| gene symbol | PubChem SID | G2 robust z-score | G2 cells, % of GMNN control | raw share of cells in G2 (%) |
| --- | --- | --- | --- | --- |
| EEF1B2P5 (GeneID 442227) | SID160733441 | -0.134 | 2.03 | 3.81 |
| EEF1B2P5 (GeneID 442227) | SID160768159 | 1.13 | 10.9 | 7.83 |
| EEF1B2P5 (GeneID 442227) | SID160768161 | 0.237 | 4.64 | 5.17 |
| FAM221B (GeneID 392307) | SID160733286 | 0.217 | 4.49 | 6.65 |
| FAM221B (GeneID 392307) | SID160766750 | -0.725 | -2.13 | 3.03 |
| FAM221B (GeneID 392307) | SID160766751 | -0.58 | -1.11 | 3.08 |
| SLC35C1 (GeneID 55343) | SID160743592 | -1.44 | -7.15 | 1.78 |
| SLC35C1 (GeneID 55343) | SID160743593 | 0.625 | 7.37 | 7.19 |
| SLC35C1 (GeneID 55343) | SID160743594 | 0.307 | 5.12 | 4.77 |
| PM20D2 (GeneID 135293) | SID160757407 | -0.111 | 2.18 | 5 |
| PM20D2 (GeneID 135293) | SID160757409 | 0.327 | 5.27 | 4.77 |
| PM20D2 (GeneID 135293) | SID160757410 | -0.62 | -1.39 | 2.07 |
| NRIP2 (GeneID 83714) | SID160751345 | 0.0999 | 3.67 | 7.15 |
| NRIP2 (GeneID 83714) | SID160751346 | 1.18 | 11.3 | 8.19 |
| NRIP2 (GeneID 83714) | SID160751347 | -0.241 | 1.27 | 4.73 |
| RAC2 (GeneID 5880) | SID160715577 | 3.55 | 27.9 | 14.6 |
| RAC2 (GeneID 5880) | SID160715578 | -0.707 | -2.01 | 3.91 |
| RAC2 (GeneID 5880) | SID160715579 | 0.36 | 5.5 | 5.97 |
| TICAM1 (GeneID 148022) | SID160758631 | -0.827 | -2.85 | 2.87 |
| TICAM1 (GeneID 148022) | SID160758632 | -0.453 | -0.221 | 2.84 |
| TICAM1 (GeneID 148022) | SID160758633 | 0.323 | 5.24 | 4.89 |
| LINC01565 (GeneID 23434) | SID160736285 | -0.583 | -1.13 | 3.99 |
| LINC01565 (GeneID 23434) | SID160736286 | 0.571 | 6.99 | 6.97 |
| LINC01565 (GeneID 23434) | SID160736287 | 0.474 | 6.3 | 5.5 |
| JAG1 (GeneID 182) | SID160715603 | -1.34 | -6.46 | 2.78 |
| JAG1 (GeneID 182) | SID160715614 | 2.59 | 21.2 | 11.9 |
| JAG1 (GeneID 182) | SID160715625 | 2.6 | 21.3 | 12 |
| EVL (GeneID 51466) | SID160733506 | -0.847 | -2.99 | 2.2 |
| EVL (GeneID 51466) | SID160740852 | 0.00211 | 2.98 | 4.67 |
| EVL (GeneID 51466) | SID160740853 | -0.457 | -0.248 | 4.17 |
| RNF214 (GeneID 257160) | SID160762527 | 2.56 | 21 | 11.3 |
| RNF214 (GeneID 257160) | SID160762528 | 1.62 | 14.4 | 8.6 |
| RNF214 (GeneID 257160) | SID160762529 | -0.0952 | 2.3 | 3.97 |
| CCNI2 (GeneID 645121) | SID160769439 | -0.215 | 1.46 | 4.19 |
| CCNI2 (GeneID 645121) | SID160769440 | 1.92 | 16.5 | 9.21 |
| CCNI2 (GeneID 645121) | SID160769442 | -0.324 | 0.685 | 3.35 |
